Measurements taken from publication PMC12102395.
These are yes or no findings as the source states them, for the method shown. In cells and extracts the contact can be indirect.

Molecular target: MHC-1 (endogenous) (human (endogenous in DU145 and PC-3))
Assay: co-IP; endogenous proteins in lysates of DU145 and/or PC-3 cells; IP lysis buffer with protease inhibitors, IgG or specific primary antibody plus protein A/G magnetic beads overnight at 4 °C, three washes, western blot

binding: no binding
B1: USP8 (endogenous) (enzyme, UniProt P40818 1-1118)
chain: MPAVASVPKELYLSSSLKDLNKKTEVKPEKISTKSYVHSALKIFKTAEECRLDRDEERAYVLYMKYVTVYNLIKKRPDFKQQQDYFHSILGPGNIKKAVEEAERLSESLKLRYEEAEVRKKLEEKDRQEEAQRLQQKRQETGREDGGTLAKGSLENVLDSKDKTQKSNGEKNEKCETKEKGAITAKELYTMMTDKNISLIIMDARRMQDYQDSCILHSLSVPEEAISPGVTASWIEAHLPDDSKDTWKKRGNVEYVVLLDWFSSAKDLQIGTTLRSLKDALFKWESKTVLRNEPLVLEGGYENWLLCYPQYTTNAKVTPPPRRQNEEVSISLDFTYPSLEESIPSKPAAQTPPASIEVDENIELISGQNERMGPLNISTPVEPVAASKSDVSPIIQPVPSIKNVPQIDRTKKPAVKLPEEHRIKSESTNHEQQSPQSGKVIPDRSTKPVVFSPTLMLTDEEKARIHAETALLMEKNKQEKELRERQQEEQKEKLRKEEQEQKAKKKQEAEENEITEKQQKAKEEMEKKESEQAKKEDKETSAKRGKEITGVKRQSKSEHETSDAKKSVEDRGKRCPTPEIQKKSTGDVPHTSVTGDSGSGKPFKIKGQPESGILRTGTFREDTDDTERNKAQREPLTRARSEEMGRIVPGLPSGWAKFLDPITGTFRYYHSPTNTVHMYPPEMAPSSAPPSTPPTHKAKPQIPAERDREPSKLKRSYSSPDITQAIQEEEKRKPTVTPTVNRENKPTCYPKAEISRLSASQIRNLNPVFGGSGPALTGLRNLGNTCYMNSILQCLCNAPHLADYFNRNCYQDDINRSNLLGHKGEVAEEFGIIMKALWTGQYRYISPKDFKITIGKINDQFAGYSQQDSQELLLFLMDGLHEDLNKADNRKRYKEENNDHLDDFKAAEHAWQKHKQLNESIIVALFQGQFKSTVQCLTCHKKSRTFEAFMYLSLPLASTSKCTLQDCLRLFSKEEKLTDNNRFYCSHCRARRDSLKKIEIWKLPPVLLVHLKRFSYDGRWKQKLQTSVDFPLENLDLSQYVIGPKNNLKKYNLFSVSNHYGGLDGGHYTAYCKNAARQRWFKFDDHEVSDISVSSVKSSAAYILFYTSLGPRVTDVAT
